These results are taken from paper PMC11780777.

By UniProt entry, the sequences of proteins in these tests, tags left out.
UniProt Q96SW2: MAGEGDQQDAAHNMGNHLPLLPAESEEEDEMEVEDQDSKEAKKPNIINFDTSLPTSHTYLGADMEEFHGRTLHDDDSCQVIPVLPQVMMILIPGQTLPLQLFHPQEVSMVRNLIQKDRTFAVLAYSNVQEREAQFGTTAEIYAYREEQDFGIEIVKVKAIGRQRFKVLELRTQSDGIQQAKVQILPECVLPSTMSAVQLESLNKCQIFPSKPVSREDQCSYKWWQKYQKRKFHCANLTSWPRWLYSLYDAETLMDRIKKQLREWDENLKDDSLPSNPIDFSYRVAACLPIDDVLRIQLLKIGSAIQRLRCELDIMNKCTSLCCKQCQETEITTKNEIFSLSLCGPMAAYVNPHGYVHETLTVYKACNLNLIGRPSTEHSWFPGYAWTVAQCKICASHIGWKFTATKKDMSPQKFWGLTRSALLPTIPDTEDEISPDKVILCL

These are yes or no findings as the source states them, for the method shown. In cells and extracts the contact can be indirect. These calls come from enrichment with a bait or labelling near it, and not all partners need be listed.

In the test the target is CRBN-FLAG-NLS-TurboID or CRBN-FLAG-NES-TurboID (UniProt Q96SW2). The test can be described thus: proximity labelling; TurboID: CRBN-FLAG-NLS-TurboID or CRBN-FLAG-NES-TurboID in HEK293T for 48 h, biotin 50 uM for 30 min; biotinylated proteins purified with NeutrAvidin, digested with trypsin, LC-MS/MS; pcDNA3.1 as control.

B1: endogenous NAC1 (HEK293T) (protein, UniProt Q96RE7 1-527)
chain: MAQTLQMEIPNFGNSILECLNEQRLQGLYCDVSVVVKGHAFKAHRAVLAASSSYFRDLFNNSRSAVVELPAAVQPQSFQQILSFCYTGRLSMNVGDQFLLMYTAGFLQIQEIMEKGTEFFLKVSSPSCDSQGLHAEEAPSSEPQSPVAQTSGWPACSTPLPLVSRVKTEQQESDSVQCMPVAKRLWDSGQKEAGGGGNGSRKMAKFSTPDLAANRPHQPPPPQQAPVVAAAQPAVAAGAGQPAGGVAAAGGVVSGPSTSERTSPGTSSAYTSDSPGSYHNEEDEEEDGGEEGMDEQYRQICNMYTMYSMMNVGQTAEKVEALPEQVAPESRNRIRVRQDLASLPAELINQIGNRCHPKLYDEGDPSEKLELVTGTNVYITRAQLMNCHVSAGTRHKVLLRRLLASFFDRNTLANSCGTGIRSSTNDPRRKPLDSRVLHAVKYYCQNFAPNFKESEMNAIAADMCTNARRVVRKSWMPKVKVLKAEDDAYTTFISETGKIEPDMMGVEHGFETASHEGEAGPSAEALQ
Turning to B1, the binding result is listed as “binds”.

B2: endogenous PICALM (HEK293T) (protein, UniProt Q13492 1-652)
chain: MSGQSLTDRITAAQHSVTGSAVSKTVCKATTHEIMGPKKKHLDYLIQCTNEMNVNIPQLADSLFERTTNSSWVVVFKSLITTHHLMVYGNERFIQYLASRNTLFNLSNFLDKSGLQGYDMSTFIRRYSRYLNEKAVSYRQVAFDFTKVKRGADGVMRTMNTEKLLKTVPIIQNQMDALLDFNVNSNELTNGVINAAFMLLFKDAIRLFAAYNEGIINLLEKYFDMKKNQCKEGLDIYKKFLTRMTRISEFLKVAEQVGIDRGDIPDLSQAPSSLLDALEQHLASLEGKKIKDSTAASRATTLSNAVSSLASTGLSLTKVDEREKQAALEEEQARLKALKEQRLKELAKKPHTSLTTAASPVSTSAGGIMTAPAIDIFSTPSSSNSTSKLPNDLLDLQQPTFHPSVHPMSTASQVASTWGDPFSATVDAVDDAIPSLNPFLTKSSGDVHLSISSDVSTFTTRTPTHEMFVGFTPSPVAQPHPSAGLNVDFESVFGNKSTNVIVDSGGFDELGGLLKPTVASQNQNLPVAKLPPSKLVSDDLDSSLANLVGNLGIGNGTTKNDVNWSQPGEKKLTGGSNWQPKVAPTTAWNAATMAPPVMAYPATTPTGMIGYGIPPQMGSVPVMTQPTLIYSQPVMRPPNPFGPVSGAQIQFM
For B2, the binding entry was “binds”.
